This note sets out measurements from paper doi:10.1101/2023.03.13.532326.

These are yes or no findings as the source states them, for the method shown. Binding seen in cells or lysates may run through a third protein. Here binding means that the protein was enriched with, or labelled near, the bait; the list need not be complete.

The assay deals with His6-FcrX (S. meliloti) (UniProt Q92JY7). Put plainly: affinity purification with mass spectrometry.

B1: FtsZ1 (protein, UniProt P30327 1-590)
chain: MAINLQKPDITELKPRITVFGVGGGGGNAVNNMITAGLQGVDFVVANTDAQALTMTKAERIIQMGVAVTEGLGAGSQPEVGRAAAEECIDEIIDHLQGTHMCFVTAGMGGGTGTGAAPIVAQAARNKGILTVGVVTKPFHFEGGRRMRIADQGISDLQKSVDTLIVIPNQNLFRIANDKTTFADAFAMADQVLYSGVACITDLMVKEGLINLDFADVRSVMREMGRAMMGTGEASGEGRAMAAAEAAIANPLLDETSMKGAQGLLISITGGRDLTLFEVDEAATRIREEVDPDANIILGATFDEELEGLIRVSVVATGIDRTAAEVAGRSADFRPVAPKPIVRPSAAVPAQPQPTVSLQPVPQPQPVQQPLQQQNVDHIALAIREAEMERELDIAARAQVAAPAPQPQPHLQEEAFRPQSKLFAGVAPTEAAPVMRPAQPAPRPVEMQAPVQPQMQAQPVQQEPTQVVRQQAEPVRMPKVEDFPPVVKAEMDYRTQPAPAHQEERGPMGLLNRITSSLGLREREATNVSSDMTAAAPSAASQQRRPLSPEASLYAPRRGQLDDHGRAAPQMRSHEDDQLEIPAFLRRQSS
In the case of B1, the binding entry was “binds”.
